Source: paper PMC10937711
These are yes or no findings as the source states them, for the method shown. Binding seen in cells or lysates may run through a third protein.

Sequences of proteins named here, by UniProt entry; tags and fusion partners are left off. A change or cut given only in a name is not applied to a line headed by its entry.
UniProt Q9Y2J4: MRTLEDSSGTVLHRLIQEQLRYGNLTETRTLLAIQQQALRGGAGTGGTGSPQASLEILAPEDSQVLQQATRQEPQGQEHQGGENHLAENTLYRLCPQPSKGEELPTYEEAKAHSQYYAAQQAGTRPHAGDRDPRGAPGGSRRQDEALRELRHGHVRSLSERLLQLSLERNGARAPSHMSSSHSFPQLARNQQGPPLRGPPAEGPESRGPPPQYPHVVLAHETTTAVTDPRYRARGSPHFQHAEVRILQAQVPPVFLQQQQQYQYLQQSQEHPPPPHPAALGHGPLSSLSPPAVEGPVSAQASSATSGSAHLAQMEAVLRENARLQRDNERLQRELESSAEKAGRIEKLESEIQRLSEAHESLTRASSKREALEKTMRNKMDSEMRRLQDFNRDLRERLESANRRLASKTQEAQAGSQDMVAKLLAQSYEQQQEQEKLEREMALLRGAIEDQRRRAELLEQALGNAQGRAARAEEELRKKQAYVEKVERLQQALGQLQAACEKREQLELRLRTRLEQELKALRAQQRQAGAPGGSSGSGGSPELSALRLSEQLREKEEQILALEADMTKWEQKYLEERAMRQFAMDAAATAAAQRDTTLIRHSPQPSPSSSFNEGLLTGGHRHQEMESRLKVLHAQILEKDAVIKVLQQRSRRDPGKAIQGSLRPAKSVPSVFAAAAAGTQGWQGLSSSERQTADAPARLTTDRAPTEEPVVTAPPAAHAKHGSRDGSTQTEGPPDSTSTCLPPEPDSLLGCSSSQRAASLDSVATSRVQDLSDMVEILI

Biological target: AMOTL2 D/E4A (human) (UniProt Q9Y2J4)
Experiment: pull-down; SBP-tagged AMOT (WT, truncations, point mutants) or AMOTL2 constructs as bait, RNF166 as prey; plasmids transfected into 293T cells for 48 h; streptavidin pulldown, immunoblot

binding: no binding
Substance: RNF166 (from UniProt Q96A37 1-237) (enzyme)
